PubChem BioAssay AID743121 – NCATS – 2013
Test: 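Partners whose loss is lethal together with topoisomerase I blockade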 (primary screen). Cell system: MDA-MB-231 cells, a human breast cancer line. Knock-down reagent: single siRNA against human genes, 20 nM siRNA (0.8 pmol per well). Duration: 120 h (drug added 48 h after transfection, read 72 h later). Treatment: camptothecin 20 nM (about EC30) for 72 h; vehicle 0.1% DMSO in parallel plates. Measured: 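CellTiter-Glo ATP signal, scaled to control siRNA as percent viability; sensitisation given as log2 of untreated divided by camptothecin-treated viability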. Direction: log2 vehicle/camptothecin viability: higher = stronger sensitisation to camptothecin; viability with camptothecin and viability without drug: higher = more viable cells. Rule for the call: 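Active genes have an RSA gene-level p-value below 0.001, computed from the ratios of their separate siRNAs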.
The whole screen tested about 26,000 reagents; below is an unselected part. 167 of them (0.63%) count as active. 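Calls are per gene from RSA p-values that are not deposited; an individual active-marked siRNA can sensitise only weakly.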 Reagents against one gene are numbered here.

no.	gene knocked down	siRNA no.	log2 vehicle/camptothecin viability	viability with camptothecin (% of control)	viability without drug (% of control)	Call
1	IMPA1 (inositol monophosphatase 1)	1	-0.494	71.8	50.9	inactive
2	IMPA1 (inositol monophosphatase 1)	2	-0.0681	66.5	63.4	inactive
3	IMPA1 (inositol monophosphatase 1)	3	-0.0427	103	100	inactive
4	IMPA1 (inositol monophosphatase 1)	4	0.351	50.2	64.1	inactive
5	CHRFAM7A (CHRNA7 (exons 5-10) and FAM7A (exons A-E) fusion)	1	-0.687	76.6	47.6	inactive
6	CHRFAM7A (CHRNA7 (exons 5-10) and FAM7A (exons A-E) fusion)	2	-0.359	143	112	inactive
7	CHRFAM7A (CHRNA7 (exons 5-10) and FAM7A (exons A-E) fusion)	3	-0.0958	108	101	inactive
8	CHRFAM7A (CHRNA7 (exons 5-10) and FAM7A (exons A-E) fusion)	4	-0.19	83.6	73.3	inactive
9	SLA (Src like adaptor)	1	-0.276	68.4	56.5	inactive
10	SLA (Src like adaptor)	2	-0.0682	100	95.5	inactive
11	SLA (Src like adaptor)	3	-0.148	84.4	76.2	inactive
12	SLA (Src like adaptor)	4	-0.159	94.8	84.9	inactive
13	NR2E3 (nuclear receptor subfamily 2 group E member 3)	1	-0.263	40.8	34	inactive
14	NR2E3 (nuclear receptor subfamily 2 group E member 3)	2	0.211	74.3	86	inactive
15	NR2E3 (nuclear receptor subfamily 2 group E member 3)	3	0.839	45.2	80.8	inactive
16	NR2E3 (nuclear receptor subfamily 2 group E member 3)	4	0.246	66.5	78.9	inactive
17	BHLHE22 (basic helix-loop-helix family member e22)	1	-0.351	108	84.8	inactive
18	BHLHE22 (basic helix-loop-helix family member e22)	2	-0.122	95.5	87.8	inactive
19	BHLHE22 (basic helix-loop-helix family member e22)	3	-0.152	118	106	inactive
20	BHLHE22 (basic helix-loop-helix family member e22)	4	-0.394	122	92.8	inactive
21	OR6B3 (olfactory receptor family 6 subfamily B member 3)	1	-0.262	76.5	63.8	inactive
22	OR6B3 (olfactory receptor family 6 subfamily B member 3)	2	-0.259	74.2	62	inactive
23	OR6B3 (olfactory receptor family 6 subfamily B member 3)	3	-0.602	79	52.1	inactive
24	OR6B3 (olfactory receptor family 6 subfamily B member 3)	4	-0.344	106	83.3	inactive
25	PTPN14 (protein tyrosine phosphatase non-receptor type 14)	1	0.0176	94.8	96	inactive
26	PTPN14 (protein tyrosine phosphatase non-receptor type 14)	2	-0.338	75.8	60	inactive
27	PTPN14 (protein tyrosine phosphatase non-receptor type 14)	3	0.114	93.3	101	inactive
28	PTPN14 (protein tyrosine phosphatase non-receptor type 14)	4	-0.256	76	63.6	inactive

Sorted by “log2 vehicle/camptothecin viability” (lowest first): some entries from above.
gene knocked down	siRNA no.	log2 vehicle/camptothecin viability	viability with camptothecin (% of control)	viability without drug (% of control)	Call
NR2E3 (nuclear receptor subfamily 2 group E member 3)	1	-0.263	40.8	34	inactive
NR2E3 (nuclear receptor subfamily 2 group E member 3)	2	0.211	74.3	86	inactive
